# Source: the supplement of paper PMC10338343
# ± gives the standard deviation. The entries are a selection whose mix differs from that of the whole data set. The uncertainty is large for many entries.
# Test system: MILI (PIWIL2) piRISC loaded with piRNA #2 (26 nt)
# Assay: pre-steady-state target cleavage rate (min^-1); MIWI and MILI are mouse PIWI proteins and EfPiwi is from a freshwater sponge; tags in brackets are library labels; higher = faster piRNA-guided slicing of the target
# Details: guide: piRNA #2 5'p-UUAGGUAACCCAGUAGAUCCAGAGGA; auxiliary factor: 500 nM mouse GTSF1
# Procedure, shortened: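 Sequencing of uncleaved targets, normalised to depth and to weakly complementary targets, was the readout of this Cleave-'n-Seq assay. A transcribed, DNA-blocked target RNA library (0.1 nM) was mixed with 1 nM active affinity-purified piRISC carrying one synthetic guide, with or without 500 nM GTSF1 partner protein, in HEPES–potassium acetate buffer at 33 °C for 0–8 or 0–960 min. Three trials were pooled, k3 was capped at 0.0001 min^-1, and a burst-and-steady-state fit gave the pre-steady-state cleavage rate.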
row,Sequence,pre-steady-state target cleavage rate
1,CUUAUCCUCUGGAGUCUACUGGGUUACCUAA,0.175 ± 0.039
2,CUUAACCUCUGGAACUACUGGGUUUCCUAA,0.311 ± 0.14
3,CUUAAGGAGACCUACUACUGGAUUACCUAA,0.000143 ± 0.04
4,CUUAAGGAGUGGAUCUACUGGGUUCCCUAA,0.00212 ± 0.0051
5,CUUAAGGAGACGAUCGUACUGGGUUACCUAA,0.000895 ± 0.012
6,CUUAAGGUCUGGAACUUCUGGGUUACCUAA,0.0253 ± 0.015
7,CUUAAGGAGACCUUCUACUGGCUUACCAAA,0.000182 ± 0.021
8,CUUAAGGACUGGAUGAACUGGGUUACCUAA,0.00178 ± 0.016
9,CUUAAGGAGAGGAUCUACAUGGGUUACCUAA,0.000107 ± 0.043
10,CUUAAGGAGACCAUCACUGGGUUACCUAA,0.000467 ± 0.018
11,CUUAACCUCUGGAUCUCCUGGGUUACCUAA,0.213 ± 0.084
12,CUUAAGGAGAGGAUCUAGUGGGUUUCCUAA,0.0009 ± 0.011
13,CUUAAGGUCUGGAACUACUGGGUUACCAAA,0.00238 ± 0.011
14,CUUAAGGACUGCAUCUUCUGGGUUACCUAA,0.00833 ± 0.0099
15,CUUAAGGAGAGGAUCUCACUGGGUUACCUAA,0.000923 ± 0.0095
16,CUUAACCUCUGGAUGUACUGGCUUACCUAA,0.00211 ± 0.0063
17,CUUAAGGAGUGGUUCUACUGGGUUACCAAA,0.00434 ± 0.0046
18,CUUAAGGAGACGAUCUACUGGCGUUACCUAA,0.00103 ± 0.011
19,CUUAAGGAGACCAUCUACUGGGAUUACCUAA,0.00186 ± 0.0054
20,CUUAAGGAGACGAUGCUACUGGGUUACCUAA,0.000566 ± 0.017
21,CUUAAGGAGUGGAUCUACUGGGUUUCCAAA,0.000311 ± 0.025
22,CUUAAGGACUGGAUCUUCUGGGUAACCUAA,0.00258 ± 0.0099
23,CUUAAGGACGGGAUCUACUGGGUUACCUAA,0.0194 ± 0.025
24,CUUAAGGUCUGGAUGUACUGCGUUACCUAA,0.00605 ± 0.0087

# Reprinted from above (22 entries):
row,Sequence,pre-steady-state target cleavage rate
1,CUUAUCCUCUGGAGUCUACUGGGUUACCUAA,0.175 ± 0.039
2,CUUAACCUCUGGAACUACUGGGUUUCCUAA,0.311 ± 0.14
3,CUUAAGGAGACCUACUACUGGAUUACCUAA,0.000143 ± 0.04
4,CUUAAGGAGUGGAUCUACUGGGUUCCCUAA,0.00212 ± 0.0051
5,CUUAAGGAGACGAUCGUACUGGGUUACCUAA,0.000895 ± 0.012
6,CUUAAGGUCUGGAACUUCUGGGUUACCUAA,0.0253 ± 0.015
7,CUUAAGGAGACCUUCUACUGGCUUACCAAA,0.000182 ± 0.021
8,CUUAAGGACUGGAUGAACUGGGUUACCUAA,0.00178 ± 0.016
9,CUUAAGGAGAGGAUCUACAUGGGUUACCUAA,0.000107 ± 0.043
10,CUUAAGGAGACCAUCACUGGGUUACCUAA,0.000467 ± 0.018
11,CUUAACCUCUGGAUCUCCUGGGUUACCUAA,0.213 ± 0.084
12,CUUAAGGAGAGGAUCUAGUGGGUUUCCUAA,0.0009 ± 0.011
13,CUUAAGGUCUGGAACUACUGGGUUACCAAA,0.00238 ± 0.011
14,CUUAAGGACUGCAUCUUCUGGGUUACCUAA,0.00833 ± 0.0099
15,CUUAAGGAGAGGAUCUCACUGGGUUACCUAA,0.000923 ± 0.0095
16,CUUAACCUCUGGAUGUACUGGCUUACCUAA,0.00211 ± 0.0063
17,CUUAAGGAGUGGUUCUACUGGGUUACCAAA,0.00434 ± 0.0046
18,CUUAAGGAGACGAUCUACUGGCGUUACCUAA,0.00103 ± 0.011
19,CUUAAGGAGACCAUCUACUGGGAUUACCUAA,0.00186 ± 0.0054
20,CUUAAGGAGACGAUGCUACUGGGUUACCUAA,0.000566 ± 0.017
21,CUUAAGGAGUGGAUCUACUGGGUUUCCAAA,0.000311 ± 0.025
22,CUUAAGGACUGGAUCUUCUGGGUAACCUAA,0.00258 ± 0.0099

# (continued)

row,Sequence,pre-steady-state target cleavage rate
1,CUUAACCUCUGGAUCUACUGCGUUAGCUAA,0.00288 ± 0.0056
2,CUUAACCUCUGAUCUACUGGGUUACCUAA,0.0852 ± 0.019
3,CUUAAGGUCUGGAUCAACUGGGUUAGCUAA,0.00225 ± 0.0057
4,CUUAAGGAGACGACUCUACUGGGUUACCUAA,0.000423 ± 0.019
5,CUUAAGGACUCGAUCUACUGGGAUACCUAA,0.00144 ± 0.015
6,CUUAAGGAGACCUACUACUGGGUAACCUAA,0.00022 ± 0.026
7,CUUAAGGACUGGUUCUACUGGGUUACCAAA,0.00118 ± 0.016
8,CUUAAGGAGACCUAGUACUGGGUUACAUAA,0.000157 ± 0.048
9,CUUAACCACUGCAUCUACUGGGUUACCUAA,0.0927 ± 0.018
10,CUUAAGCUCUGGAUCUACUGGCUUAGCUAA,0.000493 ± 0.014
11,CUUAAGGAGAGGAUCUACUGCGUUACCUUA,0.00139 ± 0.0078
12,CUUAAGGAGACCUUCUACUUGGUUACCUAA,0.000725 ± 0.0082
13,CUUAAGGACUGGAUCUACUGGGUUACCGUAA,0.00241 ± 0.0085
14,CUUAAGGAGACCUACUACUUGGGUUACCUAA,0.000254 ± 0.023
15,CUUAAGCUCUGGAUCUCUGGGUUACCUAA,0.00275 ± 0.0047
16,CUUAAGGAGACCAACUACUGGGUUACCUUA,0.000473 ± 0.02
17,CUUAUCCUCUGGAUCUACUGGGUUUGCUAA,0.216 ± 0.041
18,CUUAUCCUGUGGAUCUACUGGGUUACGUAA,0.0102 ± 0.0038
19,CUUAAGGAGACCAUCUACUGCGUAACCUAA,0.000442 ± 0.014
20,CUUAAGGAGACCAGUCUACUGGGUUACCUAA,0.00105 ± 0.0092
21,CUUAAGGAGACCUAGAUGAGGGUUGACCUAA,0.000388 ± 0.027
22,CUUAAGGAGUGCUUCUACUGGGUUACCUAA,0.000779 ± 0.0081
23,CUUAAGGAGACCAUCUACUGGGAUACCUUA,0.000149 ± 0.039
24,CUUAAGGACUGGAUCUACUGGGAAACCUAA,0.000965 ± 0.018

row,Sequence,pre-steady-state target cleavage rate
1,CUUAAGCUCUGGAUCUAGUGGGUUUCCUAA,0.0199 ± 0.0071
2,CUUAAGGAGACGAUCUGACUGGGUUACCUAA,0.000476 ± 0.017
3,CUUAACCUCUGGAUCUUACUGGGUUACCUAA,0.00199 ± 0.0053
4,CUUAAGGAGACCAUCUACUCCGUUACCUAA,0.000172 ± 0.027
5,CUUAAGGAGACGAUCAACAGGGUUACCUAA,0.00183 ± 0.0036
6,CUUAAGGAGACCUAGUACUCGGUUACCUAA,0.000111 ± 0.038
7,CUUAAGGAGACGAUCUAAUGGGUUACCUAA,0.00269 ± 0.0047
8,CUUAACCUCUGGAUCUACUGCCUUACCUAA,0.000151 ± 0.025
9,CUUAAGGAGAGGAUCUACUGGGUUCCCUAA,0.00159 ± 0.0052
10,CUUAAGGAGUGGAUCUACUGGGUUUCGUAA,0.000279 ± 0.022
11,CUUAAGGAGACGAUCUACUGGUUACCUAA,0.000538 ± 0.0053
12,CUUAAGGAGAGCAACUACUGGGUUACCUAA,0.000758 ± 0.0084
13,CUUAAGGAGAGGAUCUACUGCGUAACCUAA,0.00067 ± 0.017
14,CUUAAGGAGACCUUCUACAGCGUUACCUAA,0.00054 ± 0.018
15,CUUAAGGAGACGAUCUCCUGGGUUACCUAA,0.00331 ± 0.0037
16,CUUAAGGUCUGGUUCUACUGGCUUACCUAA,0.00172 ± 0.0083
17,CUUAAGGACUGGAUCUAGACGGUUACCUAA,0.00052 ± 0.028
18,CUUAAGGAGUGGAUCUACUGGGUAAGCUAA,0.000311 ± 0.03
19,CUUAAGGAGAGGAUCUGCUGGGUUACCUAA,0.00355 ± 0.0037
20,CUUAUCCUCUGGAUCUACUGGGUAUGGAUA [g8:g26:cont:t1A],0.000935 ± 0.0091
21,CUUAAGGUCUGGAUCUACUGGGAUAGCUAA,0.00099 ± 0.011
22,CUUAAGGAGACGAUCUACUGAGGUUACCUAA,0.00223 ± 0.0028
23,CUUAAGGAGACCUAGUACUGGGAAUCCUAA,0.000257 ± 0.03
24,CUUAAGGACUGCAUCUACUGGGUUUCCUAA,0.00268 ± 0.0081
